Measured values published in article PMC3184960.
These are yes or no findings as the source states them, for the method shown. In cells and extracts the contact can be indirect. Some binding calls cover weakened binding; strength is not graded here.

Amino acid sequences for entries named in this document (tags omitted).
UniProt P03372: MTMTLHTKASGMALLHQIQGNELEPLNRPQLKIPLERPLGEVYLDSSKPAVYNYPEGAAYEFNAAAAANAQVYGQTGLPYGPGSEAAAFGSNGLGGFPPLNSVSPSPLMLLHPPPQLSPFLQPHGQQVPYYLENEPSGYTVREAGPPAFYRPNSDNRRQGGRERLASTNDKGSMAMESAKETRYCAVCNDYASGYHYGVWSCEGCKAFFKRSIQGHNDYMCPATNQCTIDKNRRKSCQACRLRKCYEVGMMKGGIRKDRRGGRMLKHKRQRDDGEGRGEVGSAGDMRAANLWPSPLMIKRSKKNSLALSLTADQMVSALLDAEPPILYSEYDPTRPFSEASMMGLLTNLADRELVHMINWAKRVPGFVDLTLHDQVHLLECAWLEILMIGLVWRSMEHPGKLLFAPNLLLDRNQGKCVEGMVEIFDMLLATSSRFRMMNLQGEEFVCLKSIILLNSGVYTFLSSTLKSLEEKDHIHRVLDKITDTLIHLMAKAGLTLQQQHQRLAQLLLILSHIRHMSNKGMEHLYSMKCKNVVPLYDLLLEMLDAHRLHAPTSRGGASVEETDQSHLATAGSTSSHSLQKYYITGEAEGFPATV
UniProt P19785: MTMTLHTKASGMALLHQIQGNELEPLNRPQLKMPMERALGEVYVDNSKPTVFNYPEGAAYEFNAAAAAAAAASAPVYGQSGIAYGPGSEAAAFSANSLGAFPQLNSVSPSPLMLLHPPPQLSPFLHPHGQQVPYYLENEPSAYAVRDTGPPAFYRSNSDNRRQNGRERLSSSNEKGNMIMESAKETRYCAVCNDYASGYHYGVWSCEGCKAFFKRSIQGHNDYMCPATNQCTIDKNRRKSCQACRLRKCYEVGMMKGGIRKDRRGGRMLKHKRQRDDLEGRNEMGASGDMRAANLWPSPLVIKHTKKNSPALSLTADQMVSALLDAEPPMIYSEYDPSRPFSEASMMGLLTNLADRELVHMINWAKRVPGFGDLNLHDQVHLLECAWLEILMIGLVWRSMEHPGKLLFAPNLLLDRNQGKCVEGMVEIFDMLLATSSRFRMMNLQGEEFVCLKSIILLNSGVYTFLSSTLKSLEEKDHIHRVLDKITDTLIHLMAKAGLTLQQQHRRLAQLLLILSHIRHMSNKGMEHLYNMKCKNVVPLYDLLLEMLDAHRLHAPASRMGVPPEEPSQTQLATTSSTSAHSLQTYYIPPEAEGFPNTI

Key:
[1] = molecular target: T1, XAP2, in vitro translated from XAP2-pSG5 (human) (UniProt O00170); assay: co-IP; 35S-labelled XAP2 and ERα made in rabbit reticulocyte lysate, mixed in equal amounts, 60 min on ice; precipitated with XAP2 antibody (or rabbit IgG) and Sepharose A/G; SDS-PAGE
T1 sequence (chain, 35S-Methionine (radioactively labeled)): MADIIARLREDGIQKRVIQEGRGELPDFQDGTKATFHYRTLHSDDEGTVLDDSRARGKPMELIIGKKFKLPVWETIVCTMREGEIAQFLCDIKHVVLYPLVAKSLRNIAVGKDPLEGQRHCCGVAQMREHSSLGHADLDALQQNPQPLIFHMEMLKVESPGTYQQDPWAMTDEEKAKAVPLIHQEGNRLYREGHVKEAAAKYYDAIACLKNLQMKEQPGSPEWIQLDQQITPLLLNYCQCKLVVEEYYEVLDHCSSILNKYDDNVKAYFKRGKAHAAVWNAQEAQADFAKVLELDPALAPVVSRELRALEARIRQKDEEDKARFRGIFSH

[2] = molecular target: T2, Hepatitis B virus X protein associated protein 2 (XAP2), endogenous in HC11 cells (mouse (endogenous in HC11)) (UniProt O08915); assay: co-IP; HC11 whole cell extract (0.4 M KCl, 20 mM Hepes pH 7.4), cells treated with DMSO or 10 nM E2 for 1 h; 200 µg protein with 10 mM Na2MoO4 and anti-ARA9 (XAP2) antibody at 4°C, protein-G-Sepharose; blot for ERα
T2 sequence: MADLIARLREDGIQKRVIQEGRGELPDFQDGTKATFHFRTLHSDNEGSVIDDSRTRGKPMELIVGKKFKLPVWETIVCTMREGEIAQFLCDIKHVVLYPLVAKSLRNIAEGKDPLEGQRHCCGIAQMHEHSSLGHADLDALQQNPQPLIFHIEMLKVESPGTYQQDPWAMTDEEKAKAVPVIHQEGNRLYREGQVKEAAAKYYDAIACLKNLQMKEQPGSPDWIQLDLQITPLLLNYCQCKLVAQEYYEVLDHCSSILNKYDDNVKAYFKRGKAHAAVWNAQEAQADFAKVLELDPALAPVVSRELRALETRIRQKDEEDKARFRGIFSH

Row | binding [1] | binding [2] | Substance
1 | binds | – | ERα, in vitro translated from ERα-pSG5 (from UniProt P03372 1-595) (receptor)
2 | – | binds | Estrogen receptor α (ERα), endogenous in HC11 cells (from UniProt P19785 1-599)
